{
  "source": "paper PMC7819943",
  "about": "“Rice protein-binding microarrays: a tool to detect cis-acting elements near promoter regions in rice”",
  "note": "The other results are listed elsewhere or left out.",
  "data": [
    {"target": "T1, OsSMF1 (Oryza sativa, UniProt Q6ZLB0 1-436)", "T1 sequence": "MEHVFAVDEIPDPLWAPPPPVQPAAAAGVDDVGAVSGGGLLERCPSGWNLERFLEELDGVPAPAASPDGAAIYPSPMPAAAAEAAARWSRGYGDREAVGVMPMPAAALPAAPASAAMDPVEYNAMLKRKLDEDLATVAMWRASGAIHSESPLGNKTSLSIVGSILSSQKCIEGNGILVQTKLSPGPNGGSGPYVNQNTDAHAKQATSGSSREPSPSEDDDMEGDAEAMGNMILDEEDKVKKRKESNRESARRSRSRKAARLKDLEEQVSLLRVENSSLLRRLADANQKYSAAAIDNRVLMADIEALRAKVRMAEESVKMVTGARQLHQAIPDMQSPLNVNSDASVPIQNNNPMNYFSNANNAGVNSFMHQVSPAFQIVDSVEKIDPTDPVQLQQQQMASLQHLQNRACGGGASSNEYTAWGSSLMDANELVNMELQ", "experiment": "protein-binding microarray (RPBM); PBS, 2% BSA, 51.3 ng/ul salmon testes DNA, 50 uM zinc acetate, 200 nM TF, 25 C, 1 h; high values mean tight binding", "details": "protein: recombinant; tags: N-terminal polyhistidine and DsRed monomer fusion (pET32a); chain copies: 2; label: CyDye5-dUTP incorporated in the synthesized complementary strand; 3' TTTTT single-stranded linker to array surface; dsDNA, one strand shown", "in_short": "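Using Ni–NTA, transcription factors fused N-terminally to polyhistidine and DsRed were purified after expression in E. coli BL21-CodonPlus. These were incubated at 200 nM with a blocked, double-stranded custom Agilent array for 1 h at 25 °C in a buffer containing 50 µM zinc acetate, and the array was washed. The binding signal is per-feature fluorescence intensity (arbitrary units) on an Axon 4000B scanner.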", "values": [
      {"sequence": "GGTCGATCTGGCCGTCCACGTGTCCCAGCCTGACTACCCTCGGAGTCACCTAGTGCAG", "binding signal": "12200 fluorescence intensity (a.u.)"},
      {"sequence": "GCGATGGTTATATATCGGTTGATTGTTTGCCATCTCATAGCGGAGTCACCTAGTGCAG", "binding signal": "4830 fluorescence intensity (a.u.)"},
      {"sequence": "ACCACCGGTTGTTGCGGGGCCACGCGATCCCGCCACCGTCCGGAGTCACCTAGTGCAG", "binding signal": "4160 fluorescence intensity (a.u.)"},
      {"sequence": "GGCGGCCGGGATCACGGTGCGCCGCCGTTCGGACCTACTGCGGAGTCACCTAGTGCAG", "binding signal": "3540 fluorescence intensity (a.u.)"},
      {"sequence": "GTTCATCAGCGTAGGCGTGTGTCATGTCGTAGCGAACGACCGGAGTCACCTAGTGCAG", "binding signal": "4380 fluorescence intensity (a.u.)"},
      {"sequence": "ATCGCATCGCATCGTCATCGCGACTCATCTCGCCTTAACGCGGAGTCACCTAGTGCAG", "binding signal": "4760 fluorescence intensity (a.u.)"},
      {"sequence": "ATGTTACCATGGTGGTGTCTGACTCATTGCAGTCTTATCTCGGAGTCACCTAGTGCAG", "binding signal": "10200 fluorescence intensity (a.u.)"},
      {"sequence": "ACCAACCAATCCCCGCCCGCCCATCGCCACGTGTCACCCTCGGAGTCACCTAGTGCAG", "binding signal": "31100 fluorescence intensity (a.u.)"},
      {"sequence": "CGCGCTGCGGTTGCTGACGCTGCCCATCTCGACGCGGAAGCGGAGTCACCTAGTGCAG", "binding signal": "4520 fluorescence intensity (a.u.)"},
      {"sequence": "AGATTTGCCACATGCCACGACACGCGACACGCGCGCTTGTCGGAGTCACCTAGTGCAG", "binding signal": "7030 fluorescence intensity (a.u.)"},
      {"sequence": "TCTCTGATGGATAGGTGACATGGTGTGGTGTGCTTGTTTTCGGAGTCACCTAGTGCAG", "binding signal": "5300 fluorescence intensity (a.u.)"},
      {"sequence": "AATCATTTTATTTGACTAATACACGTCAGGATTGAATGAGCGGAGTCACCTAGTGCAG", "binding signal": "4880 fluorescence intensity (a.u.)"},
      {"sequence": "GTTTTCACCCCGATTTTGGTCTACGTGGCGGCTGAGTTAGCGGAGTCACCTAGTGCAG", "binding signal": "15400 fluorescence intensity (a.u.)"},
      {"sequence": "ATAGCTGCATTCACCGTATCAATGGTTTCATGCACGACCACGGAGTCACCTAGTGCAG", "binding signal": "3270 fluorescence intensity (a.u.)"},
      {"sequence": "CCGCACCTCTCTCTACACGCACGCGTCTCTCCCATCTCCCCGGAGTCACCTAGTGCAG", "binding signal": "21000 fluorescence intensity (a.u.)"},
      {"sequence": "ATCCCTCAAGTGACTCACCTACTCTAACCGCTCCCCGGCCCGGAGTCACCTAGTGCAG", "binding signal": "10700 fluorescence intensity (a.u.)"},
      {"sequence": "CATTTGCATTGCACCAAGAGGAGATCGAGGTGTAGAGTAGCGGAGTCACCTAGTGCAG", "binding signal": "32200 fluorescence intensity (a.u.)"},
      {"sequence": "CTCCATCGCCGCCGCCGACAGCGCCACCAGCTTCGCGAGACGGAGTCACCTAGTGCAG", "binding signal": "3440 fluorescence intensity (a.u.)"},
      {"sequence": "CTACGCTTCGCACTCACGTGCCACATGGACCGTGTGCGCCCGGAGTCACCTAGTGCAG", "binding signal": "4020 fluorescence intensity (a.u.)"},
      {"sequence": "GGATCGATCTATCGATCCAGTAGAGGACGTGGCAGCCGCCCGGAGTCACCTAGTGCAG", "binding signal": "12600 fluorescence intensity (a.u.)"},
      {"sequence": "GCGGGTGGACAAGGACCGATCTTTGCCGTTGAATCAACGCCGGAGTCACCTAGTGCAG", "binding signal": "3160 fluorescence intensity (a.u.)"},
      {"sequence": "TGAACATAGCTAGGCAATACTAACACGTCCTTACTATGTTCGGAGTCACCTAGTGCAG", "binding signal": "4530 fluorescence intensity (a.u.)"},
      {"sequence": "TGCACGCTGCGGCGTACGTCGCGTGCGCACACGGGAATTTCGGAGTCACCTAGTGCAG", "binding signal": "3190 fluorescence intensity (a.u.)"},
      {"sequence": "AAGCTGAAAGATTTTACTTGCGTCAGCTCCGGCTACCGTGCGGAGTCACCTAGTGCAG", "binding signal": "5780 fluorescence intensity (a.u.)"},
      {"sequence": "TATGAAATATCTTCCGCCTTTCCACATCACGCTTACGCTTCGGAGTCACCTAGTGCAG", "binding signal": "5520 fluorescence intensity (a.u.)"},
      {"sequence": "TTCCCATTCTATAATATGTCACTGAGTTTGTCAAGTTTTACGGAGTCACCTAGTGCAG", "binding signal": "3390 fluorescence intensity (a.u.)"},
      {"sequence": "TTGCTGAGTATGGGGTAGGCAATTGGACTTTACTGGACAACGGAGTCACCTAGTGCAG", "binding signal": "3190 fluorescence intensity (a.u.)"},
      {"sequence": "TAAGCGCCACATCAGTGCCACGTCGGATGAAGACCGAGTCCGGAGTCACCTAGTGCAG", "binding signal": "25000 fluorescence intensity (a.u.)"},
      {"sequence": "CTTCTGATGGTGTGTCAGCACCCTATCAGCTAAACCACCTCGGAGTCACCTAGTGCAG", "binding signal": "12100 fluorescence intensity (a.u.)"},
      {"sequence": "AAAGTACAATTTATGTCACATTGCCTAGTAGAAATGAGGTCGGAGTCACCTAGTGCAG", "binding signal": "29200 fluorescence intensity (a.u.)"},
      {"sequence": "GGTGCGTCTGACGTGTGGGGCCGGAGGAGATGTGGGGCCTCGGAGTCACCTAGTGCAG", "binding signal": "9040 fluorescence intensity (a.u.)"},
      {"sequence": "AATTTACAAGGTAAAATTTTATACCACCTTATATACTTTGCGGAGTCACCTAGTGCAG", "binding signal": "4160 fluorescence intensity (a.u.)"},
      {"sequence": "TGAGTTGGCAAGCACTATCGTCATCTGCTCCACAGGAGAGCGGAGTCACCTAGTGCAG", "binding signal": "5000 fluorescence intensity (a.u.)"},
      {"sequence": "CGGTTGAATTGTTCTTGGCATCATCGGGTGTAACCGTGTACGGAGTCACCTAGTGCAG", "binding signal": "3350 fluorescence intensity (a.u.)"},
      {"sequence": "TTCCATTCTTCATATTGATGTGGAATCACGAATCATGAGGCGGAGTCACCTAGTGCAG", "binding signal": "3270 fluorescence intensity (a.u.)"},
      {"sequence": "TTAATGACCAGCTTTACTTTTCCGCATTTTGAAAGGCATCCGGAGTCACCTAGTGCAG", "binding signal": "3300 fluorescence intensity (a.u.)"},
      {"sequence": "TGACTTTCTCGGATTTAATGCGTGACTTTTCATTCTTCCACGGAGTCACCTAGTGCAG", "binding signal": "3590 fluorescence intensity (a.u.)"},
      {"sequence": "CCTCCCTGCACTCCAGGCTTTTGCCGTGCAAATCAACCATCGGAGTCACCTAGTGCAG", "binding signal": "22200 fluorescence intensity (a.u.)"},
      {"sequence": "AGTATATTGTTCGATCGTCGCATGCACAAGCATATGGCGCCGGAGTCACCTAGTGCAG", "binding signal": "4180 fluorescence intensity (a.u.)"},
      {"sequence": "AAGCCGACGCGTGCCCGCCGGGTGCCCAGCTGGCACTCTCCGGAGTCACCTAGTGCAG", "binding signal": "4130 fluorescence intensity (a.u.)"},
      {"sequence": "GGCGGTCCATCCACGTGAGGAGGACACAGTTGCAAATTTCCGGAGTCACCTAGTGCAG", "binding signal": "3980 fluorescence intensity (a.u.)"},
      {"sequence": "GTGGACCGGTGTCGCGCATGTGCGCGTTAATAACCATTTGCGGAGTCACCTAGTGCAG", "binding signal": "4080 fluorescence intensity (a.u.)"}
    ]}
  ]
}
